Substitutions are numbered along the chain they refer to. In names and notes the source's numbering stands. Results are given in words; binding and its absence hold for the method and conditions named. For part of these data: In cells and extracts the contact can be indirect. Some entries that bind do so weakly or less than the wild type. Tags and fused reporters may be left off the sequences shown.
T1: GST-EB1, Q15691
T1 chain: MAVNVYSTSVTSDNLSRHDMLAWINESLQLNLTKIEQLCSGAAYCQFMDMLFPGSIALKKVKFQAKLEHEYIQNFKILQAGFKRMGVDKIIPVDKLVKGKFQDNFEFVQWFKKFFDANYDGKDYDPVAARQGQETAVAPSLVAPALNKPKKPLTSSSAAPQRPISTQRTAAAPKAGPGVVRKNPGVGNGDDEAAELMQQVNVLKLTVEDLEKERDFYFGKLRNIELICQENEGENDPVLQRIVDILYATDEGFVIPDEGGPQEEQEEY

The chains behind the UniProt entries cited, without tags or fusion partners. Where a name states a change or a piece, a line headed by the entry shows the natural chain unless it says otherwise.
UniProt P68363: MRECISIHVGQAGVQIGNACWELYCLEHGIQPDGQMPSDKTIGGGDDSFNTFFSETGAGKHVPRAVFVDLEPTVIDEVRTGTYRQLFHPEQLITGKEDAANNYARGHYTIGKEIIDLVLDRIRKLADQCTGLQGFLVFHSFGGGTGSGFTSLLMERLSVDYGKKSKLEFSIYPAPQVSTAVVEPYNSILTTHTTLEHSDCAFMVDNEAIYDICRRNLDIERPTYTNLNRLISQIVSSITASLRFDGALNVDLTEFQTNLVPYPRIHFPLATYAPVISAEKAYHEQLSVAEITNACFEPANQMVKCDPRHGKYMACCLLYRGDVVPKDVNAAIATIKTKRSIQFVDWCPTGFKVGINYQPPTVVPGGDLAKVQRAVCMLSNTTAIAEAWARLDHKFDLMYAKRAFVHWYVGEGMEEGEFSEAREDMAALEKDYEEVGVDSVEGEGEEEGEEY

B1: GFP-tagged full-length MCAK (wild type), Q99661 1-725 (protein)
chain: MAMDSSLQARLFPGLAIKIQRSNGLIHSANVRTVNLEKSCVSVEWAEGGATKGKEIDFDDVAAINPELLQLLPLHPKDNLPLQENVTIQKQKRRSVNSKIPAPKESLRSRSTRMSTVSELRITAQENDMEVELPAAANSRKQFSVPPAPTRPSCPAVAEIPLRMVSEEMEEQVHSIRGSSSANPVNSVRRKSCLVKEVEKMKNKREEKKAQNSEMRMKRAQEYDSSFPNWEFARMIKEFRATLECHPLTMTDPIEEHRICVCVRKRPLNKQELAKKEIDVISIPSKCLLLVHEPKLKVDLTKYLENQAFCFDFAFDETASNEVVYRFTARPLVQTIFEGGKATCFAYGQTGSGKTHTMGGDLSGKAQNASKGIYAMASRDVFLLKNQPCYRKLGLEVYVTFFEIYNGKLFDLLNKKAKLRVLEDGKQQVQVVGLQEHLVNSADDVIKMIDMGSACRTSGQTFANSNSSRSHACFQIILRAKGRMHGKFSLVDLAGNERGADTSSADRQTRMEGAEINKSLLALKECIRALGQNKAHTPFRESKLTQVLRDSFIGENSRTCMIATISPGISSCEYTLNTLRYADRVKELSPHSGPSGEQLIQMETEEMEACSNGALIPGNLSKEEEELSSQMSSFNEAMTQIRELEEKAMEELKEIIQQGPDWLELSEMTEQPDYDLETFVNKAESALAQQAKHFSALRDVIKALRLAMQLEEQASRQISSKKRPQ
B2: GFP-MCAK^S715A (protein, UniProt Q99661 1-725)
chain: B1 chain with S715A
B3: GFP-MCAK^S715E (protein, UniProt Q99661 1-725)
chain: B1 chain with S715E
B4: MCAK^WT-His (protein, UniProt Q99661 1-725)
chain: B1 chain
B5: MCAK^S715A-His (protein, UniProt Q99661 1-725)
chain: B1 chain with S715A
B6: MCAK^S715E-His (protein, UniProt Q99661 1-725)
chain: B1 chain with S715E

Legend:
GST-EB1, Q15691 = molecular target: T1, GST-EB1, Q15691; assay: pull-down; GST-EB1 as affinity matrix to isolate GFP fusions from 293T cell extracts; anti-GFP blotting and Coomassie Brilliant Blue staining; only the target purified; conditions: remark: other sources report otherwise
GST-EB1 = GST-EB1 (UniProt Q15691); assay: as above
[1] = molecular target: Taxol-stabilized microtubules (UniProt P68363); assay: co-sedimentation; 1 uM purified MCAK-His proteins with 0-10 uM Taxol-stabilized MTs in BRB80 (80 mM PIPES pH 6.8, 1 mM MgCl2, 1 mM EGTA), 10 min at 25 C, 10 min at 80,000 rpm; supernatant and pellet on SDS-PAGE, densitometry; both purified

| binding (GST-EB1) | binding [1] | further results | Binder |
| --- | --- | --- | --- |
|  |  | binding (GST-EB1, Q15691): binds | B1 |
| binds |  |  | B2 |
| binds |  |  | B3 |
|  | binds |  | B4 |
|  | binds |  | B5 |
|  | binds |  | B6 |

From paper PMC4513279
